Paper PMC6894885
No constants are given. Whether binding was seen depends on the method and setting. Binding seen in cells or lysates may run through a third protein. These calls come from enrichment with a bait or labelling near it, and not all partners need be listed.

Target: Flag-tagged replication and transcription activator (RTA), full length (Kaposi's sarcoma-associated herpesvirus (KSHV)) (UniProt F5HCV3)
Experiment: affinity purification with mass spectrometry

## Endogenous NCOA2 (from UniProt Q15596 1-1464)
  binding: binds
